Source: PubChem BioAssay AID686938 (Drosophila RNAi Screening Center, 2013)

- Purpose: 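Looking for CRAC channel components and the factors controlling them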 (primary screen)
- Cells: Drosophila S2R+ cells
- Reagents: long dsRNA against Drosophila genes, about 0.25 µg dsRNA per well, roughly 10,000 cells
- Timing: 5 days of knock-down before the calcium assay
- Challenge: thapsigargin (SERCA pump blocker) to empty calcium stores; entry signal taken 4 min after adding it
- Detection: 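Per-well fluo-4 fluorescence in two replicates, unnormalised, measured in resting cells and 4 min after store depletion by the SERCA blocker thapsigargin; ratio of the two present in few wells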
- Direction: calcium entry signal: higher = stronger calcium signal after store depletion; resting calcium signal: higher = higher resting calcium signal
- Rule for the call: 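Called when the plate z-score of the entry-to-rest ratio, mean of duplicates, falls below −3; wells with low overall dye signal (Fmax z below −2) or more than five off-targets excluded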
- Calls: active = strongly reduced calcium entry; inactive = no strong reduction
The deposit covers about 23,000 reagents; this is an unselected part of those that have a named target and a result. In the full data, 75 (0.33%) got an active call. 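Raw plate signals without normalisation; calls rest on plate z-scores that were not deposited; ratio present for only 364 wells.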 Unmarked entries are inactive. Not stated in the record: the dose of the treatment.

predicted target	DRSC id	calcium entry signal, replicate 1 (fluorescence units)	calcium entry signal, replicate 2 (fluorescence units)	resting calcium signal, replicate 1 (fluorescence units)	resting calcium signal, replicate 2 (fluorescence units)
CheB38c	DRSC02389	4.87e7	5.37e7	2.20e7	2.08e7
fd19B	DRSC20688	4.93e7	3.04e7	2.42e7	1.58e7
Vps60	DRSC10610	4.62e7	6.72e7	2.22e7	2.61e7
Phyhd1	DRSC14911	3.02e7	3.76e7	1.45e7	1.86e7
lncRNA:CR31781	DRSC02431	5.04e7		2.42e7	
lncRNA:CR31781	DRSC02432	3.99e7	2.58e7	1.71e7	1.13e7
CG6083	DRSC10580	2.21e7	2.69e7	1.16e7	1.23e7
CG9166	DRSC07842	3.42e7	4.47e7	1.72e7	1.80e7
Prosbeta2	DRSC11257	2.46e7 (active)	2.26e7	2.23e7	1.48e7
CG15046	DRSC19622	5.47e7	3.19e7	2.76e7	1.43e7
zf30C	DRSC03641	4.27e7		1.96e7	
Ttc26	DRSC15591	4.97e7	2.39e7	2.18e7	1.24e7
CG7523	DRSC16254	3.84e7	3.70e7	1.74e7	1.59e7
CG46301	DRSC01916	2.34e7	5.39e7	1.54e7	2.42e7
caz	DRSC20317	4.17e7	6.58e7	1.91e7	3.50e7
caz	DRSC22594	2.94e7	3.19e7	1.57e7	1.42e7
caz	DRSC23280	5.18e7	4.25e7	2.54e7	1.72e7
Tom	DRSC11306	2.41e7	3.91e7	1.14e7	2.63e7
CG5504	DRSC04701	4.67e7		2.40e7	
CG43117	DRSC13767	3.71e7	4.35e7	1.97e7	2.06e7
RhoGAP18B	DRSC19763	5.45e7	4.54e7	2.55e7	2.10e7
RhoGAP18B	DRSC20047	5.23e7	5.16e7	2.58e7	2.17e7
RhoGAP18B	DRSC20048	5.13e7	4.70e7	2.66e7	2.13e7
RhoGAP18B	DRSC20049	4.82e7	4.90e7	2.23e7	2.00e7

Records listed above with an active call:
predicted target	DRSC id	calcium entry signal, replicate 1 (fluorescence units)	calcium entry signal, replicate 2 (fluorescence units)	resting calcium signal, replicate 1 (fluorescence units)	resting calcium signal, replicate 2 (fluorescence units)
Prosbeta2	DRSC11257	2.46e7 (active)	2.26e7	2.23e7	1.48e7
